This data set deals with T1, PunR (YdhB), LysR-family regulator (Escherichia coli K-12 (ASKA collection clone)) (UniProt P0ACR2).
T1 sequence (looked up, limits assumed): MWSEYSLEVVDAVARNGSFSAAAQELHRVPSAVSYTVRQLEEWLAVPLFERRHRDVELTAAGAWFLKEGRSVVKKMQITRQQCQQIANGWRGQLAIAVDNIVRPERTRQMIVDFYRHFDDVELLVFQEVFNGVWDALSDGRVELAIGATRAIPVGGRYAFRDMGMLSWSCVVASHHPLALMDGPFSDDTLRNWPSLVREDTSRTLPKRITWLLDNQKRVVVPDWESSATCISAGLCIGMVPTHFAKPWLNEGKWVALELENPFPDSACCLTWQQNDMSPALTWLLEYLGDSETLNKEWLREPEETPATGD
Nature of the data set: fluorescence polarization. Conditions: no adenine, PunR 0-60 nM, 10 mM MgSO4; FP: 20 mM Tris-HCl pH 7.5, 0.1 M NaCl, 0.5 mM EDTA, 10 mM MgSO4, 2 mM DTT, 5 ug/ml herring sperm DNA, 10 nM DNA, 30 C 1 h; recombinant protein; protein details: N-terminal His6; label: 5' 6-carboxyfluorescein on printed strand. On the technique in general: Fluorescence polarisation rises when a labelled molecule tumbles more slowly, as on binding a larger partner.

For at least one entry, the source does not settle the construct or the ends of the probe. A negative result means that nothing was seen under these conditions. Protein sequences can lack the tags named with them.

As to “TGGGGACTGGTTTCAAAAATTTTGCAGGCAGAGGGG (double strand) [PunR-binding site 36 bp upstream of punC]”, the binding result is recorded as “no binding”.

Values taken from publication PMC8376909, “Identification of a transcription factor, PunR, that regulates the purine and purine nucleoside transporter punC in E. coli”.
